Data reported in article PMC6368580.
Results are given in words; binding and its absence hold for the method and conditions named. Binding seen in cells or lysates may run through a third protein. Some binding calls cover weakened binding; strength is not graded here.

The chains behind the UniProt entries cited, without tags or fusion partners. Where a name states a change or a piece, a line headed by the entry shows the natural chain unless it says otherwise. A line that says so, or that is headed by a name, gives the form on record, which may keep a tag or linker.
GFP-CIC (wild type) (Q96RK0, form named): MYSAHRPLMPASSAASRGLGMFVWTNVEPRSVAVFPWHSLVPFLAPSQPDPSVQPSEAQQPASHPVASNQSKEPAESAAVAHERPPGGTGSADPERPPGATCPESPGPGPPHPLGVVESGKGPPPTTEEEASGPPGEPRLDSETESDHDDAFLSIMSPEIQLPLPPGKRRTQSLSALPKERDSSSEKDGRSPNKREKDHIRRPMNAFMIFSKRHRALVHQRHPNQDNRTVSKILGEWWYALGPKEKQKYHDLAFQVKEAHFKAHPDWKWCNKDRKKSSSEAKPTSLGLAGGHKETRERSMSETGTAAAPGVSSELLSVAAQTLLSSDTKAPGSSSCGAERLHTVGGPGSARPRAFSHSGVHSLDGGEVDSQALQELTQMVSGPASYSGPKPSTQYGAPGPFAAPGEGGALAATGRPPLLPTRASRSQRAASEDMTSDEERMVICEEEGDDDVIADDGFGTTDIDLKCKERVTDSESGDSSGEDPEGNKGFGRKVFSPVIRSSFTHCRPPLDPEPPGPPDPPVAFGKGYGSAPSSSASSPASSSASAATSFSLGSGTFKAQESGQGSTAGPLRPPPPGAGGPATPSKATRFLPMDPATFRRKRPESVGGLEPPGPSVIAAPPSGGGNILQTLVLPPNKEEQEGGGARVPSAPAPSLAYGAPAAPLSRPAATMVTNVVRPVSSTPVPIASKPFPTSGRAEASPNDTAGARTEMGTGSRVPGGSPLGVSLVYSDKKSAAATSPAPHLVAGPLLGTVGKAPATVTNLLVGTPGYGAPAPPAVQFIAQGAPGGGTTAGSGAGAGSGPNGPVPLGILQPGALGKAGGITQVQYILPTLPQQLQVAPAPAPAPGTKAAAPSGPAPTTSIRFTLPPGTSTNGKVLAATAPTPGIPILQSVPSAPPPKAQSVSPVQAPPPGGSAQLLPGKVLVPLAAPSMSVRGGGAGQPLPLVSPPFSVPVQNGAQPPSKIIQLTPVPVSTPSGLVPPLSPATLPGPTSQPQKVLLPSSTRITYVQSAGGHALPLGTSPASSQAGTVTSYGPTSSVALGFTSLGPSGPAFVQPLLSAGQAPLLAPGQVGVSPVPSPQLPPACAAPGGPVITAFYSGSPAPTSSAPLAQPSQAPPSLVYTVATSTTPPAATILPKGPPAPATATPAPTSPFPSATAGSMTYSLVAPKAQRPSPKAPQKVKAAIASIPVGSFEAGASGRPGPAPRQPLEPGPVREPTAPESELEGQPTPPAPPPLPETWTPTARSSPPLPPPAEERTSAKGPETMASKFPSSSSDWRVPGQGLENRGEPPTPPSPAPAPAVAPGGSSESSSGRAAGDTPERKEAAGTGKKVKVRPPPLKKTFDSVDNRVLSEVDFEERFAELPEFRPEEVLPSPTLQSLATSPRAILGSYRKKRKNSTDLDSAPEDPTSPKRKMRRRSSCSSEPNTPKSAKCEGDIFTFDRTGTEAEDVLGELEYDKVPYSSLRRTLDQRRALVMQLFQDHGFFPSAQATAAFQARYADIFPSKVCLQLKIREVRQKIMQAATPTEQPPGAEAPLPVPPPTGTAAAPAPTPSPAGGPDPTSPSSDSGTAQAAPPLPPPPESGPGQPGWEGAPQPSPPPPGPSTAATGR
GFP-CIC(S173A) (Q96RK0, form named): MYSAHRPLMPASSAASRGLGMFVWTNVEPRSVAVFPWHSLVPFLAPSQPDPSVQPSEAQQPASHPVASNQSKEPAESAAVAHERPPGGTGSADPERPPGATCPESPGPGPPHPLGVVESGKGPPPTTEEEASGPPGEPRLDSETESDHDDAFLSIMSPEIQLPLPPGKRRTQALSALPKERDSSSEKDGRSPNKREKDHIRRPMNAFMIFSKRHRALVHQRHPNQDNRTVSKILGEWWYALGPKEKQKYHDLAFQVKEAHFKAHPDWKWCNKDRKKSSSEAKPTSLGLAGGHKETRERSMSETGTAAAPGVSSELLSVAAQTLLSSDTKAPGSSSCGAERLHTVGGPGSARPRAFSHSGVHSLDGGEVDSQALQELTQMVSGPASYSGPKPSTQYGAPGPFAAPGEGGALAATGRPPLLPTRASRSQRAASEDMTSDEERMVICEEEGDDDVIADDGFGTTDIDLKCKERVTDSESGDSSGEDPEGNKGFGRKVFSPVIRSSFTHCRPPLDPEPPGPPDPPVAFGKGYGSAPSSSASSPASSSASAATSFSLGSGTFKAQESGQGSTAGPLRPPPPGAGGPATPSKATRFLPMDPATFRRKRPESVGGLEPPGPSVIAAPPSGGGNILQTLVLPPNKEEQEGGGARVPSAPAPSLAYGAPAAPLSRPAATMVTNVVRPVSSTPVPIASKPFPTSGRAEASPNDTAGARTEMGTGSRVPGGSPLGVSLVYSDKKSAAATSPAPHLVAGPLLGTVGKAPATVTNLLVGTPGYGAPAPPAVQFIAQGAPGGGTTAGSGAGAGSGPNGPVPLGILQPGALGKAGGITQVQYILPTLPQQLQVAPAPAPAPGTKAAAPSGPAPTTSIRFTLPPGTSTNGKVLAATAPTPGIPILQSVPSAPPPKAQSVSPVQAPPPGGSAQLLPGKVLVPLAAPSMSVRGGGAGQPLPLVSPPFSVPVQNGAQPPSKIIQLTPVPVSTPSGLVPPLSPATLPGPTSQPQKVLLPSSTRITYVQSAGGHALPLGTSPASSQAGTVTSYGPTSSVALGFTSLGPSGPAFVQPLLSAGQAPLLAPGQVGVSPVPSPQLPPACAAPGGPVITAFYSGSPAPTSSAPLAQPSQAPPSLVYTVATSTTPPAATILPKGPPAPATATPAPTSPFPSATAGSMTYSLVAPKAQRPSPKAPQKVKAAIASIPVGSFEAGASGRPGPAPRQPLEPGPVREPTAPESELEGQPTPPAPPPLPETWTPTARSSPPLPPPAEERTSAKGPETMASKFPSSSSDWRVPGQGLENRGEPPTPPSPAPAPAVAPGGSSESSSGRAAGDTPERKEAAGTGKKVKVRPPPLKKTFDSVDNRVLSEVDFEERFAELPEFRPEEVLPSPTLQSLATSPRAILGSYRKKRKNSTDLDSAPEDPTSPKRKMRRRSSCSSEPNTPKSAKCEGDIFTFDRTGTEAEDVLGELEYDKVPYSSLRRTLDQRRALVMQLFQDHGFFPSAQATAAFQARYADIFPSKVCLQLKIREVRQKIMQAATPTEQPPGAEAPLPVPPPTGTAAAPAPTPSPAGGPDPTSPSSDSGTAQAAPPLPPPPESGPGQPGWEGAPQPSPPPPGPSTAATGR

Experiments:
[1] = substrate: CIC wild type (Supplementary Figure 5J) (human) (UniProt Q96RK0); assay: co-IP; Supplementary Figure 5J; legend not shown; immunoprecipitation from cell lysates is the only protein binding method told in the methods
[2] = molecular target: endogenous CIC in normal human astrocytes (NHA) (human (endogenous in NHA)) (UniProt Q96RK0); assay: co-IP; NHA cells after EGF treatment, lysed in EBC buffer (50 mM Tris pH 8, 120 mM NaCl, 0.5% NP-40), IP with anti-CIC antibody, washed in NETN buffer; endogenous proteins
[3] = molecular target: endogenously HA-tagged CIC in HEK293 cells (CRISPR/Cas9 knock-in) (human (endogenous in HEK293)) (UniProt Q96RK0); assay: co-IP; HEK293 cells with endogenously HA-tagged CIC (CRISPR/Cas9), IP with anti-HA antibody; EBC lysis buffer, NETN washes
[4] = molecular target: GFP-CIC(S173A) (UniProt Q96RK0); assay: co-IP; HEK293 cells transfected with indicated plasmids, IP with anti-GFP antibody; EBC lysis buffer, NETN washes
[5] = molecular target: GFP-CIC (wild type) (UniProt Q96RK0); assay: as above

B1: PJA1 protein (Supplementary Figure 5J) (enzyme, UniProt Q8NG27 1-643)
chain: MGQESSKPVWPNPTGGYQSNTGRRYGRRHAYVSFRPPTSQRERIASQRKTNSEVPMHRSAPSQTTKRSRSPFSTTRRSWDDSESSGTNLNIDNEDYSRYPPREYRASGSRRGMAYGHIDSYGADDSEEEGAGPVERPPVRGKTGKFKDDKLYDPEKGARSLAGPPPHFSSFSRDVREERDKLDPVPAARCSASRADFLPQSSVASQSSSEGKLATKGDSSERERREQNLPARPSRAPVSICGGGENTSKSAEEPVVRPKIRNLASPNCVKPKIFFDTDDDDDMPHSTSRWRDTANDNEGHSDGLARRGRGESSSGYPEPKYPEDKREARSDQVKPEKVPRRRRTMADPDFWTHSDDYYKYCDEDSDSDKEWIAALRRKYRSREQTLSSSGESWETLPGKEEREPPQAKVSASTGTSPGPGASASAGAGAGASAGSNGSNYLEEVREPSLQEEQASLEEGEIPWLQYHENDSSSEGDNDSGHELMQPGVFMLDGNNNLEDDSSVSEDLEVDWSLFDGFADGLGVAEAISYVDPQFLTYMALEERLAQAMETALAHLESLAVDVEVANPPASKESIDALPEILVTEDHGAVGQEMCCPICCSEYVKGEVATELPCHHYFHKPCVSIWLQKSGTCPVCRCMFPPPL
For B1, which binding [1] is on record?
The binding was “binds”.

B2: endogenous PJA1 in normal human astrocytes (NHA) (enzyme, UniProt Q8NG27 1-643)
chain: MGQESSKPVWPNPTGGYQSNTGRRYGRRHAYVSFRPPTSQRERIASQRKTNSEVPMHRSAPSQTTKRSRSPFSTTRRSWDDSESSGTNLNIDNEDYSRYPPREYRASGSRRGMAYGHIDSYGADDSEEEGAGPVERPPVRGKTGKFKDDKLYDPEKGARSLAGPPPHFSSFSRDVREERDKLDPVPAARCSASRADFLPQSSVASQSSSEGKLATKGDSSERERREQNLPARPSRAPVSICGGGENTSKSAEEPVVRPKIRNLASPNCVKPKIFFDTDDDDDMPHSTSRWRDTANDNEGHSDGLARRGRGESSSGYPEPKYPEDKREARSDQVKPEKVPRRRRTMADPDFWTHSDDYYKYCDEDSDSDKEWIAALRRKYRSREQTLSSSGESWETLPGKEEREPPQAKVSASTGTSPGPGASASAGAGAGASAGSNGSNYLEEVREPSLQEEQASLEEGEIPWLQYHENDSSSEGDNDSGHELMQPGVFMLDGNNNLEDDSSVSEDLEVDWSLFDGFADGLGVAEAISYVDPQFLTYMALEERLAQAMETALAHLESLAVDVEVANPPASKESIDALPEILVTEDHGAVGQEMCCPICCSEYVKGEVATELPCHHYFHKPCVSIWLQKSGTCPVCRCMFPPPL
B2 was tested. Which binding [2] did it give?
The binding was “binds”.

B3: endogenous PJA1 in HEK293 cells (enzyme, UniProt Q8NG27 1-643)
chain: MGQESSKPVWPNPTGGYQSNTGRRYGRRHAYVSFRPPTSQRERIASQRKTNSEVPMHRSAPSQTTKRSRSPFSTTRRSWDDSESSGTNLNIDNEDYSRYPPREYRASGSRRGMAYGHIDSYGADDSEEEGAGPVERPPVRGKTGKFKDDKLYDPEKGARSLAGPPPHFSSFSRDVREERDKLDPVPAARCSASRADFLPQSSVASQSSSEGKLATKGDSSERERREQNLPARPSRAPVSICGGGENTSKSAEEPVVRPKIRNLASPNCVKPKIFFDTDDDDDMPHSTSRWRDTANDNEGHSDGLARRGRGESSSGYPEPKYPEDKREARSDQVKPEKVPRRRRTMADPDFWTHSDDYYKYCDEDSDSDKEWIAALRRKYRSREQTLSSSGESWETLPGKEEREPPQAKVSASTGTSPGPGASASAGAGAGASAGSNGSNYLEEVREPSLQEEQASLEEGEIPWLQYHENDSSSEGDNDSGHELMQPGVFMLDGNNNLEDDSSVSEDLEVDWSLFDGFADGLGVAEAISYVDPQFLTYMALEERLAQAMETALAHLESLAVDVEVANPPASKESIDALPEILVTEDHGAVGQEMCCPICCSEYVKGEVATELPCHHYFHKPCVSIWLQKSGTCPVCRCMFPPPL
How did the binding [3] turn out when B3 was run?
The binding was “binds”.

B4: PJA1 in transfected HEK293 cells (Fig. 5s) (enzyme, UniProt Q8NG27 1-643)
chain: MGQESSKPVWPNPTGGYQSNTGRRYGRRHAYVSFRPPTSQRERIASQRKTNSEVPMHRSAPSQTTKRSRSPFSTTRRSWDDSESSGTNLNIDNEDYSRYPPREYRASGSRRGMAYGHIDSYGADDSEEEGAGPVERPPVRGKTGKFKDDKLYDPEKGARSLAGPPPHFSSFSRDVREERDKLDPVPAARCSASRADFLPQSSVASQSSSEGKLATKGDSSERERREQNLPARPSRAPVSICGGGENTSKSAEEPVVRPKIRNLASPNCVKPKIFFDTDDDDDMPHSTSRWRDTANDNEGHSDGLARRGRGESSSGYPEPKYPEDKREARSDQVKPEKVPRRRRTMADPDFWTHSDDYYKYCDEDSDSDKEWIAALRRKYRSREQTLSSSGESWETLPGKEEREPPQAKVSASTGTSPGPGASASAGAGAGASAGSNGSNYLEEVREPSLQEEQASLEEGEIPWLQYHENDSSSEGDNDSGHELMQPGVFMLDGNNNLEDDSSVSEDLEVDWSLFDGFADGLGVAEAISYVDPQFLTYMALEERLAQAMETALAHLESLAVDVEVANPPASKESIDALPEILVTEDHGAVGQEMCCPICCSEYVKGEVATELPCHHYFHKPCVSIWLQKSGTCPVCRCMFPPPL
For B4, which binding [4] is on record?
Its binding is “binds”.

What about the binding [5] of the same binder?
Its binding is “binds”.
